# Library screen at single concentrations

Protein sequences, listed by entry. Tags and fused reporters are not part of them. Residues count along the entry.
UniProt A4I591, 1-473: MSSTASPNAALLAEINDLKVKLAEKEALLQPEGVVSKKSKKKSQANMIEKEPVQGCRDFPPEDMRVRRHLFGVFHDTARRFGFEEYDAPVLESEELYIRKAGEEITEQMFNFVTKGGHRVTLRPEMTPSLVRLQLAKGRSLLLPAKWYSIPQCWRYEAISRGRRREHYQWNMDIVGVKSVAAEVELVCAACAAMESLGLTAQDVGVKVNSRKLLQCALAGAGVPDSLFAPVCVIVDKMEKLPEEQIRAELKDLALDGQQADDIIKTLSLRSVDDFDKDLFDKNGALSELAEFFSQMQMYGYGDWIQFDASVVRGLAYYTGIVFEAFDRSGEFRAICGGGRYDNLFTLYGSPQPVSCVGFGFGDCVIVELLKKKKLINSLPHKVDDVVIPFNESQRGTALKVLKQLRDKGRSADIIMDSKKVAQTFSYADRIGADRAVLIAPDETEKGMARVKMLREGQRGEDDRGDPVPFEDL
UniProt P9WNZ1, whole entry: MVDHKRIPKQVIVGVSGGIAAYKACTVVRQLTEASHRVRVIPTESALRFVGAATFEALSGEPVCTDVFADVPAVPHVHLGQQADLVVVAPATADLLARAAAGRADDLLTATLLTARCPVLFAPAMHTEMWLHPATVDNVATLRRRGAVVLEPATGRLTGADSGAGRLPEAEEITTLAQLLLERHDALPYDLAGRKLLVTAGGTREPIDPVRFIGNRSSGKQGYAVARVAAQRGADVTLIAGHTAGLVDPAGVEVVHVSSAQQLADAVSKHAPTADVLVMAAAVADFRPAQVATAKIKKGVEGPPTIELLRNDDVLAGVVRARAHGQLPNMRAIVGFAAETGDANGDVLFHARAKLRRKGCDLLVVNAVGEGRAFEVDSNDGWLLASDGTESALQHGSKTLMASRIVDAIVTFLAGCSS
UniProt P9WFT3, whole entry: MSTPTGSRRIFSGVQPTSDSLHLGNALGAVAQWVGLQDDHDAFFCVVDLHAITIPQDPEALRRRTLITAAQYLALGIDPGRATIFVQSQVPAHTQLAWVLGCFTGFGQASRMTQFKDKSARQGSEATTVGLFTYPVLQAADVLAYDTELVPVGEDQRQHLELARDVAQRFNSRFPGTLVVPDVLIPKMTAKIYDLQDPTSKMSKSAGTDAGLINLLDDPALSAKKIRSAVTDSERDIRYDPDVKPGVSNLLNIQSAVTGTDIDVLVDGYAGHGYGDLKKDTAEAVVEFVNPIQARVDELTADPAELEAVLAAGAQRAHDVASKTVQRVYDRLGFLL

From ChEMBL document CHEMBL3988442, “University of Dundee, Small-Polar-MMV Screening Library” (2021).

LiHisRS: 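Histidine-tRNA ligase, Leishmania infantum (UniProt A4I591). Enzyme assay of histidyl-tRNA synthetase; the read-out is not stated. Tested at 30 µM. Direction is inferred from retests: higher values go with stronger inhibition. The assay is labelled LdHisRS but filed under L. infantum. Of about 69,000 compounds tested this way, about 410 (0.6%) reached 50% or more in at least one test.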
CoaBC: 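Enzyme assay of CoaBC with a phosphate dye (Biomol Green) read at 650 nm. Target: Coenzyme A biosynthesis protein CoaBC, Mycobacterium tuberculosis (UniProt P9WNZ1). Concentration: 30 µM. Direction is inferred from only a few compounds that gave an IC50; most scored high, so higher reads as stronger inhibition. Most strong results did not repeat in a second test. Size under these conditions: about 67,000 compounds, about 40 of them at 50% or above in at least one test.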
MtTrpRS: 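Tryptophan-tRNA ligase, Mycobacterium tuberculosis (UniProt P9WFT3). Enzyme assay of tryptophanyl-tRNA synthetase; the read-out is not stated. Compounds at 10 µM. Direction is not recorded; retested compounds ran higher, which suggests that high means inhibition. Of about 65,000 compounds tested this way, about 64 (0.098%) reached 50% or more in at least one test.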

Each number is a percent effect as filed.
The controls that fix the scale are not given in the record; negative values are as filed.
Compounds were drawn at random from those tested, without regard to their results.
A dash means the value is not listed here; it may have been measured.

Compound,LiHisRS,CoaBC,MtTrpRS
CNC(=O)C1Cn2ccnc2C2(CCN(Cc3cccnc3)CC2)O1 (centres unmarked),13.53,7.969,-0.7846
Cc1cncc(C(=O)N2Cc3ccccc3C3(CCN(C)CC3)C2)c1,-3.922,1.158,-3.547
Cc1[nH]ccc1C(=O)N1CCOCC12CCCC2,15.96,5.051,-0.3871
O=C(O)C1(Oc2cccc(F)c2)CCN(c2ccncc2)CC1,13.6,-3.981,-0.2174
CCc1cnc(CCNC(C)CC(=O)Nc2cccc(C)c2C)s1 (centres unmarked),2.703,-12.45,1.519
CNC(=O)[C@H]1C[C@@H]2CN(S(=O)(=O)c3ccc(C)c(F)c3)C[C@@H]2N1C,22.86,7.166,-2.766
CC[C@H]1CN(S(C)(=O)=O)CC[C@H]1CC(=O)NCCSC,22.22,2.032,0.07531
CC(=O)N1CC[C@@H](N2CCN(C)CC2)[C@@H]1Cc1ccccc1,19.66,-20.83,-7.546
O[C@@]1(Cn2cnc(Cl)c2Cl)CCCN2CCCC[C@@H]21,5.594,5.926,-7.987
O=C(CN1CCC(c2nnc(C(F)(F)F)o2)CC1)Nc1cccnc1,14.67,2.982,-0.08937
CC(=O)N1[C@H](Cn2cncn2)C[C@@H]2CN(CC3CC3)CC[C@@H]21,11.11,-0.9677,-1.58
N#Cc1ccc(F)c(CNc2ccc(F)cc2OCCO)c1,4.819,7.282,-0.6274
O=C1CC[C@H]2[C@H](CCN2C(=O)C2CCOC2)N1Cc1ccncc1 (some centres unmarked),-2.564,8.271,-2.075
Cc1csc(N2CCN(CC(=O)Nc3nncs3)CC2C)n1 (centres unmarked),3.077,9.781,-4.956
Fc1ccccc1CN1CCCC2(CCN(c3ncccn3)CC2)C1,22.37,6.542,-3.144
Cc1nc(-c2cccnc2)ncc1C(=O)N1CCC(C(C)N(C)C)CC1 (centres unmarked),20.51,-0.2545,5.425
Cn1cc(CNC2CCc3ncnn3C2)c(-c2cccnc2)n1 (centres unmarked),3.03,0.2016,-4.238
Cc1cc(C)n(CC2CCCN2C(=O)c2ccc3[nH]cnc3c2)n1 (centres unmarked),18.07,2.658,3.671
Cc1cnn(CC(C)NCc2nc(-c3ccoc3)no2)c1 (centres unmarked),-3.704,0,2.292
O=C(O)C1(O)CCN(c2ccc3cccc(Cl)c3n2)CC1,13.25,3.388,2.601
NS(=O)(=O)NCc1cc(-c2ccc(C(F)(F)F)cc2)n[nH]1,17.14,0.8434,-
CNC(=O)NC(=O)C(NCc1ccccc1)c1ccccc1 (centres unmarked),4.396,3.049,6.623
CCNc1nc(C)c(C(=O)N2CCC(C(O)Cc3ccccc3)CC2)s1 (centres unmarked),20.98,1.235,0.3132
CC(C)c1noc(CN2CCN(C(=O)c3ccccc3F)CC2)n1,12.31,8.094,-4.956
CNC(=O)NCC(=O)N(C)C(c1ccc(Cl)cc1)c1cccnc1 (centres unmarked),-15.22,-1.58,-3.859
CCC(=O)c1ccc(OCC(=O)N(C)C(C)c2ccon2)cc1 (centres unmarked),5.208,-8.929,-3.818
CN1CCN(C(=O)CCn2nnc3ccccc32)CC(C(N)=O)C1 (centres unmarked),2.817,-19.48,-1.715
NC(=O)CCSc1n[nH]c(-c2ccc3c(c2)CCC3)n1,22.12,5.607,-2.3
CN(Cc1nc(Cc2ccccc2F)no1)CC1Cc2ccccc2O1 (centres unmarked),-5.479,-2.2,2.086
CCC1CN(CC(=O)NCCN2CCCCC2)c2ccccc2S1 (centres unmarked),27.17,3.511,1.866
CC[C@@H]1N(Cc2ccoc2)CCC[C@]12CCC(=O)N2CCOC,15.28,-2.469,1.724
Cc1cccc2c1nc1n2[C@@H](CNC(=O)NC(C)C)COC1,14.86,-0.6623,0.07588
Cc1cc(-n2cncn2)ccc1C(=O)Nc1ccc(N2CCCC2)cn1,12.07,-8.351,-2.169
COc1ccc(C)cc1NC(=O)Cn1nc(C)c(C#N)c1N,8.547,-1.709,-3.926
Cc1ccc(S(=O)(=O)N2CCc3ccc(F)cc32)cc1C(=O)O,0,-4.7,1.132
Cn1ncc2c1NC(=O)CC2c1c(Cl)cccc1Cl (centres unmarked),25,4.177,2.712
NC(=O)NC(CC(=O)N1CCc2sccc2C1)c1ccccc1F (centres unmarked),-13.25,3.89,2.754
CC(C)(C)OC(=O)N1CCCc2ccc(NCc3cc[nH]c3)cc21,13.98,4.019,4.152
CC(C)[C@H](NC(=O)Cn1nc2c(cc1=O)CCCC2)C(=O)O,20.65,0.3632,2.644
COCC1CC2(CCN(C(=O)c3cncc(C)c3)CC2)CO1 (centres unmarked),8.772,-4.575,27.65
CC(C)COCC(NC(=O)c1cccnc1)c1ccco1 (centres unmarked),38.1,7.236,-2.269
O=C(Nc1cc(C(F)(F)F)c[nH]c1=O)C1CCCO1 (centres unmarked),21.74,-3.038,-3.215
CC(C)N1CC(C(=O)NCc2ccnc(-n3cccn3)c2)CC1=O (centres unmarked),-4.255,6.995,-7.053
Cc1cc(C)c2cc(CNCCCN3CCOCC3)c(=O)[nH]c2c1,19.79,3.676,-
CN(Cc1ccc(N2CCCCC2)cc1)Cc1noc(C(C)(C)C)n1,-8.491,-0.9091,-0.08285
CSc1nnc(CNC(=O)Nc2ccccc2Br)n1C,11.51,-4.067,-4.557
COCCC(=O)N1CC[C@H]2O[C@@H](C)C[C@H]2C1,-4,2.75,1.407
c1ccc(CN2C[C@@H]3CCCO[C@@H]3[C@H](Nc3ccccn3)C2)nc1,24.53,2.643,-3.856
C=C(C)COc1cccc(CNC(CC)c2ccnn2C)c1 (centres unmarked),13.6,1.809,2.101
COc1ccccc1[C@@H]1CN(Cc2nccn2C)C[C@H]1C(=O)O,9.091,6.509,-2.124
CC(=O)NCCNC(=O)c1ccc(C)c(-n2cccc2)c1,13.7,-8.037,-2.545
Cc1cccc(N2CCN(CC(=O)N3CCCC(N(C)C)CC3)CC2)c1 (centres unmarked),20.8,-2.439,-4.364
Fc1cccnc1N1CCOCC2(CCCNC2)C1 (centres unmarked),0,6.314,-4.689
Cc1nc(CNc2nc(-c3ccco3)nc3c2CCNCC3)n[nH]1,14.71,-24.85,1.685
c1cc2n(n1)CC(CNCc1ccc(OC3CCCCC3)nc1)CN2 (centres unmarked),-60.27,2.41,-5.835
COc1ccccc1CN1CCCC(Cc2nccnc2N)C1 (centres unmarked),15.49,7.601,-6.182
NC(=O)CCn1cc(CNCCCc2ccncc2)c2ccccc21,12.5,-17.57,-0.7498
O=C(COc1ccccc1C(F)(F)F)NCCNC(=O)c1ccccc1,20,6.198,5.04
Cn1c2c(c(=O)n1C)CN(C(=O)c1ccsc1)CCC2,11.5,-2.316,3.586
O=C(Cn1cnc(NC(=O)CC2CCCC2)n1)NCc1ccccc1,31.2,-2.128,-1.415
COC(=O)N1CCCC(NC(=O)NCc2nc(C)cs2)C1 (centres unmarked),11.57,1.623,0.3127
Cc1ccc(F)c(CNc2ccn(CCC(N)=O)n2)c1,11.76,-0.8589,0.2467
CC(C)(NC(=O)Cc1ccccc1F)C(C)(C)C(=O)O,15.25,3.639,1.341
Cc1nn(C)c(Cl)c1C1CCCN1C(=O)c1ccc2c(c1)OCO2 (centres unmarked),2.381,2.966,0.5477
COCCCS(=O)(=O)N1CCN(C(=O)CO)CC1,-4.225,5.034,-1.147
Cc1cc2c(=O)n3c(nc2s1)CCN(C(=O)c1ccnn1C(C)C)CC3,14,0.3717,-
CCOC1CCN(C(=O)NCCc2ccn(-c3ccccc3)n2)CC1,6.195,2.872,-1.505
Cc1cnn(CC(C)NCCc2cccs2)c1 (centres unmarked),9.859,-,11
CCS(=O)(=O)NC[C@]12COC[C@H]1CN(Cc1ccncc1)C2,2.632,4.277,-2.164
Cc1ccc(-c2nc(CN3CCOCC3)no2)cc1N1CCNC1=O,17.7,1.384,2.449
O=C(CNC(=O)Nc1cccc(Cl)c1SC(F)F)NC1CC1,20.55,-2.564,-1.323
CCN1CC2(CCC1=O)CCN(c1ccc(C(C)=O)cn1)CC2,17.11,0.6452,5.576
COCC(=O)N(C)Cc1cccc(Cl)c1,17.14,2.564,19.81

6 of the entries, repeated:

| Compound | LiHisRS | CoaBC | MtTrpRS |
|---|---|---|---|
| `Cc1cccc(N2CCN(CC(=O)N3CCCC(N(C)C)CC3)CC2)c1` (centres unmarked) | 20.8 | -2.439 | -4.364 |
| `Cc1csc(N2CCN(CC(=O)Nc3nncs3)CC2C)n1` (centres unmarked) | 3.077 | 9.781 | -4.956 |
| `CCC1CN(CC(=O)NCCN2CCCCC2)c2ccccc2S1` (centres unmarked) | 27.17 | 3.511 | 1.866 |
| `CC(=O)N1[C@H](Cn2cncn2)C[C@@H]2CN(CC3CC3)CC[C@@H]21` | 11.11 | -0.9677 | -1.58 |
| `CN(Cc1nc(Cc2ccccc2F)no1)CC1Cc2ccccc2O1` (centres unmarked) | -5.479 | -2.2 | 2.086 |
| `CNC(=O)[C@H]1C[C@@H]2CN(S(=O)(=O)c3ccc(C)c(F)c3)C[C@@H]2N1C` | 22.86 | 7.166 | -2.766 |